Test results reported in publication PMC7801380, “Development of phenotypic assays for identifying novel blockers of L-type calcium channels in neurons” (Scientific Reports, 2021).

Columns and labels:
[1] = system: L-type calcium channels (LTCCs); test: Calcium flux (FLIPR) assay, Bay K8644-induced responses in rat primary cortical cultures; assay type: cell-based; details: PW library screen hit confirmation; 1.1 µM Bay K8644; holding [K+] 20 mM; read-out: FLIPR IC50 Rat cortical culture
DHP site = test: Rat cortex binding, DHP site ([3H]nitrendipine); details: rat cortical homogenates; [3H]nitrendipine 0.1 nM
Description: (§1) The in-vitro binding studies were conducted by Eurofins (France) using rat cortex. […] The IC50 values (the concentration that causes half-maximal inhibition of control specific binding) were determined by non-linear regression analysis of the competition curves using Hill equation: Y = […] Y = specific binding, A = left asymptote of the curve, D = right asymptote of the curve, C = compound concentration, and nH = slope factor. Analyses were performed using software developed at Eurofins (Hill software) and validated by comparison with data generated by the commercial software SigmaPlot 4.0. […] KD values were determined from Scatchard plots.

Phenylalkylamine site = test: Rat cortex binding, phenylalkylamine site ([3H]D888); details: rat cortical homogenates; [3H]D888 3 nM
Description: as §1

Benzothiazepine site = test: Rat cortex binding, benzothiazepine site ([3H]diltiazem); details: rat cortical homogenates; [3H]diltiazem 15 nM
Description: as §1

CN1CCC(=C2c3ccccc3C=Cc3ccccc32)CC1 [Cyproheptadine]
IC50 [1]: 138 nM | Ki (DHP site): 3560 nM | Ki (Phenylalkylamine site): 3300 nM | Ki (Benzothiazepine site): 2280 nM

CN(C)CCCN1c2ccccc2CCc2ccc(Cl)cc21 [clomipramine]
IC50 [1]: 1010 nM
